# These are yes or no findings as the source states them, for the method shown. Binding seen in cells or lysates may run through a third protein. Some results given as binding are weak or reduced against the parent protein; the word gives no strength.
# T1: P-selectin glycoprotein ligand-1 (human (endogenous in T cells)) (UniProt Q14242)
# T1 sequence: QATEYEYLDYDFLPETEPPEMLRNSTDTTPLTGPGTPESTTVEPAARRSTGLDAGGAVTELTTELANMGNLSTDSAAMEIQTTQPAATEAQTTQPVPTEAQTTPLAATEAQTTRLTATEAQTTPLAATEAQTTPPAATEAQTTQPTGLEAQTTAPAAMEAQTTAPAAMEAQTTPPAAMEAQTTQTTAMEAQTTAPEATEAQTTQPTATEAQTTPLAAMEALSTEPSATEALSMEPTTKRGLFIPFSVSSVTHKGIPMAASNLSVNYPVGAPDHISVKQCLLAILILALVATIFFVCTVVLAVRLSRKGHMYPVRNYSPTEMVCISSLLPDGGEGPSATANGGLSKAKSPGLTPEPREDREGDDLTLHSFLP
# B1: flotillin-2 (protein, UniProt Q14254 1-428)
# chain: MGNCHTVGPNEALVVSGGCCGSDYKQYVFGGWAWAWWCISDTQRISLEIMTLQPRCEDVETAEGVALTVTGVAQVKIMTEKELLAVACEQFLGKNVQDIKNVVLQTLEGHLRSILGTLTVEQIYQDRDQFAKLVREVAAPDVGRMGIEILSFTIKDVYDKVDYLSSLGKTQTAVVQRDADIGVAEAERDAGIREAECKKEMLDVKFMADTKIADSKRAFELQKSAFSEEVNIKTAEAQLAYELQGAREQQKIRQEEIEIEVVQRKKQIAVEAQEILRTDKELIATVRRPAEAEAHRIQQIAEGEKVKQVLLAQAEAEKIRKIGEAEAAVIEAMGKAEAERMKLKAEAYQKYGDAAKMALVLEALPQIAAKIAAPLTKVDEIVVLSGDNSKVTSEVNRLLAELPASVHALTGVDLSKIPLIKKATGVQV
# Target: T1, P-selectin glycoprotein ligand-1 (human (endogenous in T cells))
# Experiment: proximity ligation; in situ PLA in freshly isolated human T cells, without chemokine or stimulated 15 min with SDF-1; polyclonal rabbit anti-flotillin-2 and murine monoclonal anti-PSGL-1; control with the anti-flotillin-2 antibody only; unpublished observations (Baumann et al.)
binder,measurement,value
B1,binding,binds

# From publication PMC3619129
